{"source": "PubChem BioAssay AID1259331 (Drosophila RNAi Screening Center, 2017)", "aim": "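Genes whose knock-down changes cell survival under toxic zinc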 (primary screen)", "cell system": "Drosophila S2R+ cells", "reagents": "long dsRNA against Drosophila genes", "duration": "5 days (4 days knock-down, then 1 day zinc)", "challenge": "zinc chloride at 15 mM final level for 1 day", "detection": "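Total cellular ATP measured by luciferase luminescence as a viability proxy, turned into Z scores from three plate copies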", "direction": "mean Z score: higher = more ATP than other wells, better survival under zinc; ATP luminescence: higher = more ATP, more viable cells", "hit rule": "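a reagent is called a hit when its Z score is above 1.5 or below -1.5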", "calls": "active = hit, ATP up or down; inactive = not a hit", "note": "This is a random part of about 3,100 reagents. Of all reagents, 126 (4.1%) got an active call. 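Calls are per reagent; zinc was so toxic that few knock-downs lowered ATP further, so most hits raise ATP.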 Raw values vary from plate to plate and are shown uncorrected. Entries without a mark were called inactive. The numbers tell different reagents against one gene apart. Names joined by + are all predicted targets of the reagent. Not stated in the record: the amount of reagent."}
{"gene knocked down": "CG7970", "reagent no.": 1, "mean Z score": 0.00124, "ATP luminescence, replicate 1": 28011, "ATP luminescence, replicate 2": 30542}
{"gene knocked down": "CG7970", "reagent no.": 2, "mean Z score": 0.231, "ATP luminescence, replicate 1": 62844, "ATP luminescence, replicate 2": 59963}
{"gene knocked down": "CG9643", "reagent no.": 1, "mean Z score": 0.11, "ATP luminescence, replicate 1": 47600, "ATP luminescence, replicate 2": 48526}
{"gene knocked down": "CG9643", "reagent no.": 2, "mean Z score": 0.569, "ATP luminescence, replicate 1": 67983, "ATP luminescence, replicate 2": 63273}
{"gene knocked down": "alien + CG17906", "reagent no.": 1, "mean Z score": 0.465, "ATP luminescence, replicate 1": 53762, "ATP luminescence, replicate 2": 41102}
{"gene knocked down": "alien + CG17906", "reagent no.": 2, "mean Z score": -0.0794, "ATP luminescence, replicate 1": 59329, "ATP luminescence, replicate 2": 61026}
{"gene knocked down": "CG8249", "reagent no.": 1, "mean Z score": -0.497, "ATP luminescence, replicate 1": 63239, "ATP luminescence, replicate 2": 60916}
{"gene knocked down": "CG8249", "reagent no.": 2, "mean Z score": -0.292, "ATP luminescence, replicate 1": 53224, "ATP luminescence, replicate 2": 50887}
{"gene knocked down": "ppk (pickpocket)", "reagent no.": 1, "mean Z score": 0.0558, "ATP luminescence, replicate 1": 50223, "ATP luminescence, replicate 2": 45320}
{"gene knocked down": "ppk (pickpocket)", "reagent no.": 2, "mean Z score": 0.205, "ATP luminescence, replicate 1": 57700, "ATP luminescence, replicate 2": 60581}
{"gene knocked down": "lbm (late bloomer)", "reagent no.": 1, "mean Z score": -0.013, "ATP luminescence, replicate 1": 72534, "ATP luminescence, replicate 2": 70149}
{"gene knocked down": "lbm (late bloomer)", "reagent no.": 2, "mean Z score": 0.0893, "ATP luminescence, replicate 1": 55213, "ATP luminescence, replicate 2": 52675}
{"gene knocked down": "CG32987", "reagent no.": 1, "mean Z score": 0.344, "ATP luminescence, replicate 1": 64199, "ATP luminescence, replicate 2": 64422}
{"gene knocked down": "CG32987", "reagent no.": 2, "mean Z score": -0.711, "ATP luminescence, replicate 1": 42714, "ATP luminescence, replicate 2": 58300}
{"gene knocked down": "Or85c (Odorant receptor 85c)", "reagent no.": 1, "mean Z score": -0.176, "ATP luminescence, replicate 1": 36842, "ATP luminescence, replicate 2": 54339}
{"gene knocked down": "Or85c (Odorant receptor 85c)", "reagent no.": 2, "mean Z score": -0.0747, "ATP luminescence, replicate 1": 54424, "ATP luminescence, replicate 2": 55951}
{"gene knocked down": "Inx5 (Innexin 5)", "reagent no.": 1, "mean Z score": 0.503, "ATP luminescence, replicate 1": 63067, "ATP luminescence, replicate 2": 43331}
{"gene knocked down": "SPR (Sex peptide receptor)", "reagent no.": 1, "mean Z score": -0.124, "ATP luminescence, replicate 1": 64885, "ATP luminescence, replicate 2": 63067}
{"gene knocked down": "SPR (Sex peptide receptor)", "reagent no.": 2, "mean Z score": 0.17, "ATP luminescence, replicate 1": 49311, "ATP luminescence, replicate 2": 48514}
{"gene knocked down": "Ekar (Eye-enriched kainate receptor)", "reagent no.": 1, "mean Z score": -0.394, "ATP luminescence, replicate 1": 62330, "ATP luminescence, replicate 2": 56654}
{"gene knocked down": "Ekar (Eye-enriched kainate receptor)", "reagent no.": 2, "mean Z score": -0.632, "ATP luminescence, replicate 1": 48303, "ATP luminescence, replicate 2": 39113}
{"gene knocked down": "CG10761", "reagent no.": 1, "mean Z score": 0.128, "ATP luminescence, replicate 1": 69070, "ATP luminescence, replicate 2": 67269}
{"gene knocked down": "CG10761", "reagent no.": 2, "mean Z score": -0.0348, "ATP luminescence, replicate 1": 56083, "ATP luminescence, replicate 2": 58265}
{"gene knocked down": "mthl3 + mthl4", "reagent no.": 1, "mean Z score": -0.154, "ATP luminescence, replicate 1": 52230, "ATP luminescence, replicate 2": 51492}
